Measured values: the supplement of paper PMC2577665
± gives the standard deviation of the averaged measurements. Single values of this set are uncertain.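 Every well combined ERalpha-negative HeLa cells, transfected ERalpha, a two-estrogen-response-element reporter, and overexpression of a single poorly characterized human cDNA. Any gene lowering the signal to at most the BRCA1 positive control level, about 0.6 of empty vector, was called a repressor hit.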

The substances below were run on ERE-luciferase reporter with exogenous ERalpha in HeLa cells (assay: relative ERE luciferase activity (Firefly/Renilla) upon cDNA overexpression, relative to empty vector (fold of empty vector); higher = stronger ERalpha transactivation (less repression)). Details: 17beta-estradiol: 10 nM; 12 h.

Row | Substance | relative ERE luciferase activity
1 | MNSLSEANTKFMFDLFQQFRKSKENNIFYSPISITSALGMVLLGAKDNTAQQIKKVLHFDQVTENTTGKAATYHVDRSGNVHHQFQKLLTEFNKSTDAYELKIANKLFGEKTYLFLQEYLDAIKKFYQTSVESVDFANAPEESRKKINSWVESQTNEKIKNLIPEGNIGSNTTLVLVNAIYFKGQWEKKFNKEDTKEEKFWPNKNTYKSIQMMRQYTSFHFASLEDVQAKVLEIPYKGKDLSMIVLLPNEIDGLQKLEEKLTAEKLMEWTSLQNMRETRVDLHLPRFKVEESYDLKDTLRTMGMVDIFNGDADLSGMTGSRGLVLSGVLHKAFVEVTEEGAEAAAATAVVGFGSSPTSTNEEFHCNHPFLFFIRQNKTNSILFYGRFSSP [SERPINB3] | 1.12
2 | C12orf31 | 1.13
3 | MAGPWTFTLLCGLLAATLIQATLSPTAVLILGPKVIKEKLTQELKDHNATSILQQLPLLSAMREKPAGGIPVLGSLVNTVLKHIIWLKVITANILQLQVKPSANDQELLVKIPLDMVAGFNTPLVKTIVEFHMTTEAQATIRMDTSASGPTRLVLSDCATSHGSLRIQLLHKLSFLVNALAKQVMNLLVPSLPNLVKNQLCPVIEASFNGMYADLLQLVKVPISLSIDRLEFDLLYPAIKGDTIQLYLGAKLLDSQGKVTKWFNNSAASLTMPTLDNIPFSLIVSQDVVKAAVAAVLSPEEFMVLLDSVLPESAHRLKSSIGLINEKAADKLGSTQIVKILTQDTPEFFIDQGHAKVAQLIVLEVFPSSEALRPLFTLGIEASSEAQFYTKGDQLILNLNNISSDRIQLMNSGIGWFQPDVLKNIITEIIHSILLPNQNGKLRSGVPVSLVKALGFEAAESSLTKDALVLTPASLWKPSSPVSQ [C20orf114] | 1.03
4 | MLSSFNEWFWQDRFWLPPNVTWTELEDRDGRVYPHPQDLLAALPLALVLLAMRLAFERFIGLPLSRWLGVRDQTRRQVKPNATLEKHFLTEGHRPKEPQLSLLAAQCGLTLQQTQRWFRRRRNQDRPQLTKKFCEASWRFLFYLSSFVGGLSVLYHESWLWAPVMCWDRYPNQTLKPSLYWWYLLELGFYLSLLIRLPFDVKRKDFKEQVIHHFVAVILMTFSYSANLLRIGSLVLLLHDSSDYLLEACKMVNYMQYQQVCDALFLIFSFVFFYTRLVLFPTQILYTTYYESISNRGPFFGYYFFNGLLMLLQLLHVFWSCLILRMLYSFMKKGQMEKDIRSDVEESDSSEEAAAAQEPLQLKNGAAGGPRPAPTDGPRSRVAGRLTNRHTTAT [LASS4] | 1.13
5 | MAAGTAAALAFLSQESRTRAGGVGGLRVPAPVTMDSFFFGCELSGHTRSFTFKVEEEDDAEHVLALTMLCLTEGAKDECNVVEVVARNHDHQEIAVPVANLKLSCQPMLSLDDFQLQPPVTFRLKSGSGPVRITGRHQIVTMSNDVSEEESEEEEEDSDEEEVELCPILPAKKQGGRP [NPM3] | 1.08
6 | MGPTRKPNVCSRLSRRALGCFSRDAGVVQRTNLGILRALVCQESTKFKNVWTTHSRSPIAYERGRIYFDNYRRCVSSVASEPRKLYEMPKCSKSEKIEDALLWECPVGDILPNSSDYKSSLIALTAHNWLLRISATTGKILEKIYLAPYCKFRYLSWDTPQEVIAVKSAQNRGSAVARQAGIQQHVLLYLAVFRVLPFSLVGILEINKKIFGNVTDATLSHGILIVMYSSGLVRLYSFQTIAEQFMQQKLDLGCACRWGGTTGTVGEAPFGIPCNIKITDMPPLLFEVSSLENAFQIGGHPWHYIVTPNKKKQKGVFHICALKDNSLAKNGIQEMDCCSLESDWIYFHPDASGRIIHVGPNQVKVLKLTEIENNSSQHQISEDFVILANRENHKNENVLTVTASGRVVKKSFNLLDDDPEQETFKIVDYEDELDLLSVVAVTQIDAEGKAHLDFHCNEYGTLLKSIPLVESWDVTYSHEVYFDRDLVLHIEQKPNRVFSCYVYQMICDTGEEEETINRSC [C2orf37] | 1.14 ± 0.12
7 | SRXN1 | 0.97
8 | MLSARDRRDRHPEEGVVAELQGFAVDKAFLTSHKGILLETELALTLIIFICFTASISAYMAAALLEFFITLAFLFLYATQYYQRFDRINWPCLLQGHGQSGGPHPLDLLSHSAKVQPQPWPGLTPPGWHTPAAVPWVPAPAPGFWSWLLWFICFHSLGSSDFLRCVSAIIIFLVVSFAAVTSRDGAAIAAFVFGIILVSIFAYDAFKIYRTEMAPGASQGDQQ [CMTM5] | 1.83
9 | MANYYEVLGVQASASPEDIKKAYRKLALRWHPDKNPDNKEEAEKKFKLVSEAYEVLSDSKKRSLYDRAGCDSWRAGGGASTPYHSPFDTGYTFRNPEDIFREFFGGLDPFSFEFWDSPFNSDRGGRGHGLRGAFSAGFGEFPAFMEAFSSFNMLGCSGGSHTTFSSTSFGGSSSGSSGFKSVMSSTEMINGHKVTTKRIVENGQERVEVEEDGQLKSVTVNGKEQLKWMDSK [DNAJB8] | 1.07
10 | TINP1 | 0.606
